This is one part of the list.
Tests used:
Assay in all cases: glycan array binding signal (z-score within array); higher = stronger binding
Settings in all cases: glycan notation: IUPAC condensed, linker removed
Fuc(a1-2)Gal = biological target: Fuc(a1-2)Gal
Outline: (§1)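 The Consortium for Functional Glycomics database supplied 3228 glycan arrays, of which those lacking an available protein sequence were dropped. The binding signal, a within-array Z-score, was averaged across arrays of the same protein sequence and across linkers. Negative scores can be read as non-binding.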

Fuc(a1-2)Gal(b1-3)GalNAc = biological target: Fuc(a1-2)Gal(b1-3)GalNAc
Outline: as §1

[1] = biological target: Fuc(a1-2)Gal(b1-3)GalNAc(a1-3)[Fuc(a1-2)]Gal(b1-4)Glc
Outline: as §1

[2] = biological target: Fuc(a1-2)Gal(b1-3)GalNAc(a1-3)[Fuc(a1-2)]Gal(b1-4)GlcNAc
Outline: as §1

[3] = biological target: Fuc(a1-2)Gal(b1-3)GalNAc(b1-3)Gal
Outline: as §1

[4] = biological target: Fuc(a1-2)Gal(b1-3)GalNAc(b1-3)Gal(a1-4)Gal(b1-4)Glc
Outline: as §1

[5] = biological target: Fuc(a1-2)Gal(b1-3)GalNAc(b1-4)[Neu5Ac(a2-3)]Gal(b1-4)Glc
Outline: as §1

Fuc(a1-2)Gal(b1-3)GlcNAc = biological target: Fuc(a1-2)Gal(b1-3)GlcNAc
Outline: as §1

[6] = biological target: Fuc(a1-2)Gal(b1-3)GlcNAc(b1-2)Man(a1-3)[Fuc(a1-2)Gal(b1-3)GlcNAc(b1-2)Man(a1-6)]Man(b1-4)GlcNAc(b1-4)GlcNAc
Outline: as §1

[7] = biological target: Fuc(a1-2)Gal(b1-3)GlcNAc(b1-2)Man(a1-3)[Fuc(a1-2)Gal(b1-3)GlcNAc(b1-2)Man(a1-6)]Man(b1-4)GlcNAc(b1-4)[Fuc(a1-6)]GlcNAc
Outline: as §1

[8] = biological target: Fuc(a1-2)Gal(b1-3)GlcNAc(b1-3)Gal(b1-4)Glc
Outline: as §1

[9] = biological target: Fuc(a1-2)Gal(b1-3)GlcNAc(b1-3)GalNAc
Outline: as §1

[10] = biological target: Fuc(a1-2)Gal(b1-3)GlcNAc(b1-3)[Fuc(a1-2)Gal(b1-3)GlcNAc(b1-6)]GalNAc
Outline: as §1

[11] = biological target: Fuc(a1-2)Gal(b1-3)GlcNAc(b1-3)[Gal(b1-4)GlcNAc(b1-6)]Gal(b1-4)Glc
Outline: as §1

[12] = biological target: Fuc(a1-2)Gal(b1-3)GlcNAc(b1-3)[Neu5Ac(a2-6)Gal(b1-4)GlcNAc(b1-6)]Gal(b1-4)Glc
Outline: as §1

[13] = biological target: Fuc(a1-2)Gal(b1-3)GlcNAc6S
Outline: as §1

[14] = biological target: Fuc(a1-2)Gal(b1-3)[Fuc(a1-4)]GlcNAc
Outline: as §1

[15] = biological target: Fuc(a1-2)Gal(b1-3)[Fuc(a1-4)]GlcNAc(b1-2)Man(a1-3)[Fuc(a1-2)Gal(b1-3)[Fuc(a1-4)]GlcNAc(b1-2)Man(a1-3)]Man(b1-4)GlcNAc(b1-4)GlcNAc
Outline: as §1

[16] = biological target: Fuc(a1-2)Gal(b1-3)[Fuc(a1-4)]GlcNAc(b1-2)Man(a1-3)[Fuc(a1-2)Gal(b1-3)[Fuc(a1-4)]GlcNAc(b1-2)Man(a1-6)]Man(b1-4)GlcNAc(b1-4)[Fuc(a1-6)]GlcNAc(b1-4)[Fuc(a1-6)]GlcNAc
Outline: as §1

[17] = biological target: Fuc(a1-2)Gal(b1-3)[Fuc(a1-4)]GlcNAc(b1-3)[Fuc(a1-3)[Gal(b1-4)]GlcNAc(b1-6)]Gal(b1-4)Glc
Outline: as §1

[18] = biological target: Fuc(a1-2)Gal(b1-3)[Fuc(a1-4)]GlcNAc(b1-3)[Gal(b1-4)GlcNAc(b1-6)]Gal(b1-4)Glc
Outline: as §1

Fuc(a1-2)Gal(b1-4)Glc = biological target: Fuc(a1-2)Gal(b1-4)Glc
Outline: as §1

Fuc(a1-2)Gal(b1-4)Glc6S = biological target: Fuc(a1-2)Gal(b1-4)Glc6S
Outline: as §1

Fuc(a1-2)Gal(b1-4)GlcNAc = biological target: Fuc(a1-2)Gal(b1-4)GlcNAc
Outline: as §1

[19] = biological target: Fuc(a1-2)Gal(b1-4)GlcNAc(b1-2)Man
Outline: as §1

[20] = biological target: Fuc(a1-2)Gal(b1-4)GlcNAc(b1-2)Man(a1-3)[Fuc(a1-2)Gal(b1-4)GlcNAc(b1-2)Man(a1-6)]Man(b1-4)GlcNAc(b1-4)GlcNAc
Outline: as §1

[21] = biological target: Fuc(a1-2)Gal(b1-4)GlcNAc(b1-2)Man(a1-3)[Fuc(a1-2)Gal(b1-4)GlcNAc(b1-2)Man(a1-6)]Man(b1-4)GlcNAc(b1-4)[Fuc(a1-6)]GlcNAc
Outline: as §1

[22] = biological target: Fuc(a1-2)Gal(b1-4)GlcNAc(b1-2)[Fuc(a1-2)Gal(b1-4)GlcNAc(b1-4)]Man(a1-3)[Fuc(a1-2)Gal(b1-4)GlcNAc(b1-2)Man(a1-6)]Man(b1-4)GlcNAc(b1-4)GlcNAc
Outline: as §1

[23] = biological target: Fuc(a1-2)Gal(b1-4)GlcNAc(b1-3)Gal(b1-4)GlcNAc
Outline: as §1

[24] = biological target: Fuc(a1-2)Gal(b1-4)GlcNAc(b1-3)Gal(b1-4)GlcNAc(b1-2)Man(a1-3)[Fuc(a1-2)Gal(b1-4)GlcNAc(b1-3)Gal(b1-4)GlcNAc(b1-2)Man(a1-6)]Man(b1-4)GlcNAc(b1-4)GlcNAc
Outline: as §1

[25] = biological target: Fuc(a1-2)Gal(b1-4)GlcNAc(b1-3)Gal(b1-4)GlcNAc(b1-3)Gal(b1-4)GlcNAc
Outline: as §1

[26] = biological target: Fuc(a1-2)Gal(b1-4)GlcNAc(b1-3)GalNAc
Outline: as §1

[27] = biological target: Fuc(a1-2)Gal(b1-4)GlcNAc(b1-3)[Fuc(a1-2)Gal(b1-4)GlcNAc(b1-6)]GalNAc
Outline: as §1

[28] = biological target: Fuc(a1-2)Gal(b1-4)GlcNAc(b1-3)[Fuc(a1-3)[Gal(b1-4)]GlcNAc(b1-6)]Gal(b1-4)Glc
Outline: as §1

[29] = biological target: Fuc(a1-2)Gal(b1-4)GlcNAc(b1-6)GalNAc
Outline: as §1

[30] = biological target: Fuc(a1-2)Gal(b1-4)GlcNAc6S
Outline: as §1

[31] = biological target: Fuc(a1-2)Gal(b1-4)[Fuc(a1-3)]GlcNAc
Outline: as §1

[32] = biological target: Fuc(a1-2)Gal(b1-4)[Fuc(a1-3)]GlcNAc(b1-2)Man(a1-3)[Fuc(a1-2)Gal(b1-4)[Fuc(a1-3)]GlcNAc(b1-2)Man(a1-6)]Man(b1-4)GlcNAc(b1-4)[Fuc(a1-6)]GlcNAc
Outline: as §1

[33] = biological target: Fuc(a1-2)Gal(b1-4)[Fuc(a1-3)]GlcNAc(b1-2)[Fuc(a1-2)Gal(b1-4)[Fuc(a1-3)]GlcNAc(b1-4)]Man(a1-3)[Fuc(a1-2)Gal(b1-4)[Fuc(a1-3)]GlcNAc(b1-2)Man(a1-6)]Man(b1-4)GlcNAc(b1-4)GlcNAc
Outline: as §1

[34] = biological target: Fuc(a1-2)Gal(b1-4)[Fuc(a1-3)]GlcNAc(b1-3)Gal(b1-4)[Fuc(a1-3)]GlcNAc
Outline: as §1

[35] = biological target: Fuc(a1-2)Gal(b1-4)[Fuc(a1-3)]GlcNAc(b1-3)Gal(b1-4)[Fuc(a1-3)]GlcNAc(b1-3)Gal(b1-4)[Fuc(a1-3)]GlcNAc
Outline: as §1

[36] = biological target: Fuc(a1-2)Gal(b1-4)[Fuc(a1-3)]GlcNAc(b1-3)GalNAc
Outline: as §1

[37] = biological target: Fuc(a1-2)Gal(b1-4)[Fuc(a1-3)]GlcNAc(b1-3)[Neu5Ac(a2-6)Gal(b1-4)GlcNAc(b1-6)]Gal(b1-4)Glc
Outline: as §1

[38] = biological target: Fuc(a1-2)Gal3S(b1-4)GlcNAc
Outline: as §1

[39] = biological target: Fuc(a1-2)Gal6S(b1-3)GlcNAc
Outline: as §1

B1: GS13814A-bth-462-26-462 (Bacteroides thetaiotaomicron) (protein)
chain: DDRDNLMVNDQIGLLHSTYTETEIFRGMDTPYQLFVIKSGKGKQETEVSISVDETVLQSYNTDNGTSIQLLPSDCYTILQPALRLNDSDYRKAFDIKWNADRLSDLLSTGKEYGLPIQMSVVQNFISADDERLKTIIVPTIKEPYLQMDVPGMSPVTDFMPTFGDLNERELFVKIRTNYSNDEDISFQIEVDPQLVIDYNTAHGTAYKMLPESSFTVDNKGVILTGMKETFIKIKYHKKGLIPEEGTYLFGDYVLPLRITSVSKYGISPDAASKLYTVKFQPDPIDKKGWSVIDFNNCCTQDGGWYLNMGWGVESLIDNNPGTQWLCRWDVKEPLPYYFVFDMGKEYTLFRFGFANPVAPAAHVWAGTSKAGYVEASIDNENWVKLKDWTSPKIGEPNVNMDVPATQARYIRFVITDTYPTYDGLRVSLGEVYAWGM
glycan array binding signal (z-score) (Fuc(a1-2)Gal): 0.789 | glycan array binding signal (z-score) (Fuc(a1-2)Gal(b1-3)GalNAc): 0.571 | glycan array binding signal (z-score) [1]: -0.009 | glycan array binding signal (z-score) [2]: -1.06 | glycan array binding signal (z-score) [3]: 0.037 | glycan array binding signal (z-score) [4]: -0.308 | glycan array binding signal (z-score) [5]: -0.003 | glycan array binding signal (z-score) (Fuc(a1-2)Gal(b1-3)GlcNAc): -0.005 | glycan array binding signal (z-score) [6]: 1.01 | glycan array binding signal (z-score) [7]: -0.414 | glycan array binding signal (z-score) [8]: 0.315 | glycan array binding signal (z-score) [9]: -0.472 | glycan array binding signal (z-score) [10]: 0.46 | glycan array binding signal (z-score) [11]: -0.86 | glycan array binding signal (z-score) [12]: -0.718 | glycan array binding signal (z-score) [13]: 0.856 | glycan array binding signal (z-score) [14]: -1.06 | glycan array binding signal (z-score) [15]: 1.49 | glycan array binding signal (z-score) [16]: 0.703 | glycan array binding signal (z-score) [17]: -0.751 | glycan array binding signal (z-score) [18]: -0.3 | glycan array binding signal (z-score) (Fuc(a1-2)Gal(b1-4)Glc): 0.064 | glycan array binding signal (z-score) (Fuc(a1-2)Gal(b1-4)Glc6S): 0.689 | glycan array binding signal (z-score) (Fuc(a1-2)Gal(b1-4)GlcNAc): -0.135 | glycan array binding signal (z-score) [19]: 0.143 | glycan array binding signal (z-score) [20]: 0.925 | glycan array binding signal (z-score) [21]: 0.222 | glycan array binding signal (z-score) [22]: -0.627 | glycan array binding signal (z-score) [23]: -0.031 | glycan array binding signal (z-score) [24]: -0.179 | glycan array binding signal (z-score) [25]: -0.707 | glycan array binding signal (z-score) [26]: -0.823 | glycan array binding signal (z-score) [27]: -0.52 | glycan array binding signal (z-score) [28]: 0.763 | glycan array binding signal (z-score) [29]: -0.42 | glycan array binding signal (z-score) [30]: -0.303 | glycan array binding signal (z-score) [31]: 0.33 | glycan array binding signal (z-score) [32]: -0.921 | glycan array binding signal (z-score) [33]: 0.171 | glycan array binding signal (z-score) [34]: 1.33 | glycan array binding signal (z-score) [35]: 0.023 | glycan array binding signal (z-score) [36]: 2.19 | glycan array binding signal (z-score) [37]: -0.537 | glycan array binding signal (z-score) [38]: -0.428 | glycan array binding signal (z-score) [39]: -0.495

Source: the supplement of paper PMC8728848
